For the assay, the target named is Glia maturation factor-γ (GMFγ) (human (endogenous in HASMC)) (UniProt O60234). The experiment in a line: co-IP.

The chains behind the UniProt entries cited, without tags or fusion partners.
UniProt O60234, whole entry: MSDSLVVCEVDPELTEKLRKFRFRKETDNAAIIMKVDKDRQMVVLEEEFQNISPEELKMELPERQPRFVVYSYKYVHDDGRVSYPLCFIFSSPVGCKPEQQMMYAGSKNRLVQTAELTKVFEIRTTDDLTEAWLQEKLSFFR
UniProt O00401, whole entry: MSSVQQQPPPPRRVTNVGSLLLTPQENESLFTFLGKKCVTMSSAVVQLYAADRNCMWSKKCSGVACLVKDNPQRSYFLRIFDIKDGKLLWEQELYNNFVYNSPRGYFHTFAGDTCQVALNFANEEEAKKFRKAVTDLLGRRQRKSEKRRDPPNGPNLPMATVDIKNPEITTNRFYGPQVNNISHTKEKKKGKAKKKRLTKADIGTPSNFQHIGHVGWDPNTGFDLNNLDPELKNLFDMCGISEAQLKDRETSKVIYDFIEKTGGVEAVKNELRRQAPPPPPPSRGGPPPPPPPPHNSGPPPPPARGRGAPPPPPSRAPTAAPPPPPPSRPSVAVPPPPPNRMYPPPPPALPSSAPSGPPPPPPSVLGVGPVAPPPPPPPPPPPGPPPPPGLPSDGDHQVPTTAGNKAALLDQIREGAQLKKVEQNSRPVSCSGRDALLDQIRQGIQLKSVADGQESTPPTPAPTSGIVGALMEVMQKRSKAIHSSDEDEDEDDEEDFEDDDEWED

No constants are given. Whether binding was seen depends on the method and setting. Binding seen in cells or lysates may run through a third protein. Some binding calls cover weakened binding; strength is not graded here.

On to “Neural Wiskott-Aldrich syndrome protein phosphorylated at tyrosine 256, N-WASP (pY256) (from UniProt O00401 1-505)”, for which the binding entry is listed as “binds”.

The values above are taken from doi:10.1101/248914.
